The other results are listed elsewhere or left out. Further columns of the screen follow, without active or inactive calls. Compounds called inactive in the main read-out are mostly missing here. The note in brackets gives the kind of curve behind each potency; many fits are weak.
Assay: qHTS Assay for Identifying the Cell-Membrane Permeable IMPase Inhibitors
Conditions: CHO-M1 cells, IP1 accumulation, HTRF TR-FRET ratio; measured here: donor channel 620 nm AC50
With CCC1CCCCN1C(=O)CSc1nc(-c2ccc(OC)cc2)cc(C(F)(F)F)n1 (stereo unspecified) the AC50 was 3.16 µM [falling, full curve]. In the case of CCOC(=O)C1CCCN(c2c(NCCCN3CCCC(C)C3)c(=O)c2=O)C1 (stereo unspecified), the AC50 is reported as 31.6 µM [falling, partial curve, poor fit]. For CCOC(=O)c1sc(C)c2c1NC(c1ccc(N(C)C)cc1)NC2=O (stereo unspecified), the AC50 was 5.01 µM [rising, full curve]. With CCCOC(=O)c1ccc(NC(=O)c2cnccn2)cc1 the AC50 was 0.0251 µM [rising, full curve, poor fit]. For CCOC(=O)c1cc(Br)c(=O)n2ccccc12, the AC50 was 12.6 µM [rising, single point]. In the case of CCOC(=O)c1c(-c2ccc(C)o2)csc1NC(=O)COC(=O)c1ccc(NC(N)=O)cc1, the AC50 is reported as 31.6 µM [rising, single point]. For CCOc1ccc2cc(C#N)c(SCC(=O)NC(C)CC)nc2c1 (stereo unspecified), the AC50 was 25.1 µM [rising, single point]. For O=C(CN(CCc1ccccc1)S(=O)(=O)c1ccccc1)NCc1ccc(Cl)cc1, the AC50 was 3.16 µM [rising, single point]. For NS(=O)(=O)c1ccc(NC(=O)CN2CCN(Cc3ccccc3)CC2)cc1, the AC50 was 0.00316 µM [falling, full curve, poor fit]. For CCOC(=O)c1ccc(NC(=O)C(C)N(c2ccc(OCC)cc2)S(C)(=O)=O)cc1 (stereo unspecified), the AC50 was 1.12 µM [falling, full curve, poor fit]. In the case of CC1CCN(c2cc(N)c(Cl)cc2[N+](=O)[O-])CC1, the AC50 is reported as 3.16 µM [rising, full curve]. For Cc1cc(C)cc(Nc2nnc(-n3nc(C)cc3C)c3ccccc23)c1, the AC50 was 20 µM [falling, partial curve, poor fit]. For Cn1cc(Cl)c(C(=O)Nc2nc3ccc(Cl)cc3s2)n1, the AC50 was 31.6 µM [falling, single point]. In the case of COc1cc(C)c(S(=O)(=O)Nc2ccccc2F)cc1C, the AC50 is reported as 0.126 µM [falling, full curve, poor fit]. With Cc1nc(Cc2nnc(SCc3nc(N)nc(Nc4ccccc4C)n3)o2)cs1 the AC50 was 0.631 µM [falling, partial curve, poor fit]. For CCOC(=O)/C(C#N)=C/c1ccc(OC(=O)c2ccco2)c(OCC)c1, the AC50 was 17.8 µM [rising, partial curve]. For Cc1nnc(NC(=O)Cn2cnc3c2c(=O)n(C)c(=O)n3C)s1, the AC50 was 1 µM [falling, full curve]. For CC(C)CNC(=O)CSc1nnc(-c2cccc(S(=O)(=O)N3CCCCC3)c2)o1, the AC50 was 0.794 µM [falling, full curve]. With COc1ccc(C(=O)/C=C/c2ccc(OC)c(COc3ccccc3F)c2)cc1 the AC50 was 3.16 µM [rising, single point]. For CCCC(=O)N1CCc2cc(-c3nc(N)sc3C)ccc21, the AC50 was 3.98 µM [rising, partial curve]. With Cc1ccccc1OCc1nnc(SCC(=O)N2c3ccccc3Sc3ccc(Cl)cc32)o1 the AC50 was 0.158 µM [falling, full curve, poor fit]. With COc1ccc(-c2cc(C(F)F)n3ncc(C(=O)N4CCN5CCCC5C4)c3n2)cc1 (stereo unspecified) the AC50 was 3.98 µM [falling, full curve]. For Cc1ccccc1NC(=O)/C(=C/c1cccs1)NC(=O)c1ccco1, the AC50 was 14.1 µM [falling, partial curve, poor fit]. For Cc1sc(NC(=O)c2ccco2)c(C(c2ccncc2)N2CCOCC2)c1C (stereo unspecified), the AC50 was 5.01 µM [rising, single point]. For O=C(NCCc1ccccc1)c1cc2sccc2n1Cc1ccccc1, the AC50 was 31.6 µM [rising, single point]. For CC(=O)c1c(C)oc2ccc(N(C(=O)Oc3ccccc3)S(=O)(=O)c3ccccc3)cc12, the AC50 was 5.62 µM [falling, single point]. For CCn1cnc2cc(NCc3cccc(OC)c3O)ccc21, the AC50 was 2.82 µM [falling, single point]. For COc1ccc(C2C=C(c3cccs3)Nc3nc(CCCO)nn32)cc1 (stereo unspecified), the AC50 was 15.8 µM [rising, partial curve]. In the case of Cc1ccc(C(=O)C2=C(O)C(=O)N(CCCn3ccnc3)C2c2ccc(OC(C)C)cc2)o1 (stereo unspecified), the AC50 is reported as 15.8 µM [rising, single point]. With Cc1ccc2c(c1)N(CC(=O)NCCc1c[nH]c3ccccc13)C(=O)CO2 the AC50 was 3.16 µM [rising, single point]. With Cc1cc(N2CCOCC2)nc2ccc(NC(=O)CCC(=O)N3CCCCC3)cc12 the AC50 was 0.01 µM [rising, full curve, poor fit]. In the case of CCCCS(=O)(=O)CC(O)CSc1nc(-c2ccc(C)cc2)cc(-c2ccccc2)c1C#N (stereo unspecified), the AC50 is reported as 35.5 µM [rising, single point]. In the case of CCOC(=O)c1ccc(Nc2ccc(-c3ccc(OC)c(OC)c3)nn2)cc1, the AC50 is reported as 3.16 µM [rising, single point]. In the case of COCCCNC(=O)CNC(=S)N(Cc1ccc(F)cc1)C1CCCCC1, the AC50 is reported as 0.0126 µM [rising, full curve, poor fit]. For CCOC(=O)C(C)Sc1ncc(OC)c(=O)[nH]1 (stereo unspecified), the AC50 was 2.82 µM [rising, full curve, poor fit]. For O=C(Nc1ccccc1-c1nc2ccccc2s1)c1cccnc1Cl, the AC50 was 0.251 µM [rising, full curve]. For COc1ccc(-c2nc(CCNC(=O)c3cccs3)cs2)cc1, the AC50 was 0.1 µM [falling, full curve, poor fit]. For COC(=O)c1cc(OC)c(OC)cc1NC(=O)Nc1ccc(OC)cc1OC, the AC50 was 31.6 µM [falling, single point]. With Cc1cc(Br)c2c(c1)=C(c1sc(N3CCCCCC3)nc1O)C(=O)N=2 the AC50 was 0.0158 µM [falling, partial curve, poor fit]. With O=C(Nc1cccnc1)c1cc(-c2ccc3c(c2)OCO3)on1 the AC50 was 0.00398 µM [rising, full curve, poor fit]. In the case of COc1ccc(C(=O)Nc2ccccn2)cc1, the AC50 is reported as 1 µM [falling, full curve]. In the case of Cc1nc(SC2CCOC2=O)c2c(C)c(C)sc2n1 (stereo unspecified), the AC50 is reported as 10 µM [rising, partial curve]. In the case of CCC1(CC)Cc2ccccc2C(N)=C1C#N, the AC50 is reported as 0.158 µM [falling, partial curve, poor fit]. For Cc1cnn(-c2ccc3nnc(-c4ccc(Br)cc4)n3n2)c1, the AC50 was 0.00501 µM [falling, full curve, poor fit]. With CC(=O)c1cc2c(cc1NC(=O)CN1CCN(c3cccc(C(F)(F)F)c3)CC1)OCO2 the AC50 was 1.78 µM [rising, full curve, poor fit]. With CN(Cc1c(O)ccc2c1oc(=O)c1ccccc12)C1CCCCC1 the AC50 was 12.6 µM [rising, single point]. With CC(=O)CSc1ncnc2c1oc1ccccc12 the AC50 was 25.1 µM [rising, single point]. In the case of N#Cc1sc2nc(-c3cccs3)cc(-c3ccc(Cl)cc3)c2c1N, the AC50 is reported as 12.6 µM [rising, single point]. For Cc1ccc(CN2C(=O)C3CCCN3c3ccc(S(=O)(=O)N4CCOCC4)cc32)cc1 (stereo unspecified), the AC50 was 0.0126 µM [falling, full curve, poor fit]. With CC(=O)NCC(=O)OCC(=O)c1ccc(C)c(C)c1 the AC50 was 6.31 µM [falling, single point]. With COc1ccc2cc(C3(C)NC(=O)N(CC(=O)Nc4c(C)n(C)n(-c5ccccc5)c4=O)C3=O)ccc2c1 (stereo unspecified) the AC50 was 2.82 µM [falling, single point]. With CCOC(=O)C1CCN(C(=O)CNS(=O)(=O)c2ccc(Br)s2)CC1 the AC50 was 0.0158 µM [rising, partial curve, poor fit]. In the case of c1ccc(-c2cnc(SCCN3CCOCC3)n2CC2CCCO2)cc1 (stereo unspecified), the AC50 is reported as 0.00316 µM [falling, full curve, poor fit]. In the case of COc1ccccc1-n1c(=O)oc2ccc(Cl)cc2c1=O, the AC50 is reported as 1.26 µM [rising, single point]. With N#Cc1c(N)nc(SCC(=O)NCCc2ccccc2)c(C#N)c1-c1cccs1 the AC50 was 20 µM [rising, single point]. With CC(C)c1cc(C(N)=O)c(NC(=O)c2cccc(COc3ccc(Cl)cc3)c2)s1 the AC50 was 0.316 µM [falling, full curve, poor fit]. In the case of Cc1onc(-c2ccccc2Cl)c1C(=O)Nc1nnc(-c2ccc(Cl)cc2Cl)s1, the AC50 is reported as 14.1 µM [rising, single point]. In the case of Cc1ccccc1Cn1c(C(=O)OC(C)C)cc2c1ccn2C, the AC50 is reported as 3.98 µM [falling, single point]. For Cc1ccc(-n2c(SCC(=O)Nc3c(C)cccc3C)nc(O)c(C)c2=O)cc1, the AC50 was 5.62 µM [falling, single point]. For Cc1ccccc1C(c1c(C)n(C)n(-c2ccccc2)c1=O)c1c(C)n(C)n(-c2ccccc2)c1=O, the AC50 was 5.62 µM [rising, single point]. With O=C1c2ccccc2C(=O)N1CCSc1nncs1 the AC50 was 20 µM [falling, single point]. In the case of Cc1c(Br)c([N+](=O)[O-])nn1CC(=O)Nc1sc2c(c1C(=O)OC(C)C)CCCC2, the AC50 is reported as 15.8 µM [falling, single point]. For Cc1ccc(NC(=S)NCCO)c(C)c1, the AC50 was 0.794 µM [falling, partial curve, poor fit]. With CCCC(=O)Nc1ccc(NC(=O)c2sc3ccccc3c2Cl)cc1 the AC50 was 14.1 µM [rising, single point]. In the case of CCc1c(C)nc(SCC(=O)N2CCc3ccccc32)[nH]c1=O, the AC50 is reported as 0.891 µM [falling, full curve, poor fit]. In the case of COc1cc2c(cc1NC(=O)CN1CCN(S(=O)(=O)c3ccc(C)cc3)CC1)oc1ccccc12, the AC50 is reported as 3.16 µM [rising, single point].

From PubChem BioAssay AID901 (National Center for Advancing Translational Sciences (NCATS), 2007)
